Measured values as given in the supplement of paper PMC12819154, “High-throughput peptide-centric local stability assay extends protein–ligand identification to membrane proteins, tissues and bacteria” (Nature Structural & Molecular Biology, 2025).
Some of the results follow. Small differences around the control level are noise.

Amino acid sequences for entries named in this document (tags omitted). A change or cut given only in a name is not applied to a line headed by its entry.
UniProt Q92608: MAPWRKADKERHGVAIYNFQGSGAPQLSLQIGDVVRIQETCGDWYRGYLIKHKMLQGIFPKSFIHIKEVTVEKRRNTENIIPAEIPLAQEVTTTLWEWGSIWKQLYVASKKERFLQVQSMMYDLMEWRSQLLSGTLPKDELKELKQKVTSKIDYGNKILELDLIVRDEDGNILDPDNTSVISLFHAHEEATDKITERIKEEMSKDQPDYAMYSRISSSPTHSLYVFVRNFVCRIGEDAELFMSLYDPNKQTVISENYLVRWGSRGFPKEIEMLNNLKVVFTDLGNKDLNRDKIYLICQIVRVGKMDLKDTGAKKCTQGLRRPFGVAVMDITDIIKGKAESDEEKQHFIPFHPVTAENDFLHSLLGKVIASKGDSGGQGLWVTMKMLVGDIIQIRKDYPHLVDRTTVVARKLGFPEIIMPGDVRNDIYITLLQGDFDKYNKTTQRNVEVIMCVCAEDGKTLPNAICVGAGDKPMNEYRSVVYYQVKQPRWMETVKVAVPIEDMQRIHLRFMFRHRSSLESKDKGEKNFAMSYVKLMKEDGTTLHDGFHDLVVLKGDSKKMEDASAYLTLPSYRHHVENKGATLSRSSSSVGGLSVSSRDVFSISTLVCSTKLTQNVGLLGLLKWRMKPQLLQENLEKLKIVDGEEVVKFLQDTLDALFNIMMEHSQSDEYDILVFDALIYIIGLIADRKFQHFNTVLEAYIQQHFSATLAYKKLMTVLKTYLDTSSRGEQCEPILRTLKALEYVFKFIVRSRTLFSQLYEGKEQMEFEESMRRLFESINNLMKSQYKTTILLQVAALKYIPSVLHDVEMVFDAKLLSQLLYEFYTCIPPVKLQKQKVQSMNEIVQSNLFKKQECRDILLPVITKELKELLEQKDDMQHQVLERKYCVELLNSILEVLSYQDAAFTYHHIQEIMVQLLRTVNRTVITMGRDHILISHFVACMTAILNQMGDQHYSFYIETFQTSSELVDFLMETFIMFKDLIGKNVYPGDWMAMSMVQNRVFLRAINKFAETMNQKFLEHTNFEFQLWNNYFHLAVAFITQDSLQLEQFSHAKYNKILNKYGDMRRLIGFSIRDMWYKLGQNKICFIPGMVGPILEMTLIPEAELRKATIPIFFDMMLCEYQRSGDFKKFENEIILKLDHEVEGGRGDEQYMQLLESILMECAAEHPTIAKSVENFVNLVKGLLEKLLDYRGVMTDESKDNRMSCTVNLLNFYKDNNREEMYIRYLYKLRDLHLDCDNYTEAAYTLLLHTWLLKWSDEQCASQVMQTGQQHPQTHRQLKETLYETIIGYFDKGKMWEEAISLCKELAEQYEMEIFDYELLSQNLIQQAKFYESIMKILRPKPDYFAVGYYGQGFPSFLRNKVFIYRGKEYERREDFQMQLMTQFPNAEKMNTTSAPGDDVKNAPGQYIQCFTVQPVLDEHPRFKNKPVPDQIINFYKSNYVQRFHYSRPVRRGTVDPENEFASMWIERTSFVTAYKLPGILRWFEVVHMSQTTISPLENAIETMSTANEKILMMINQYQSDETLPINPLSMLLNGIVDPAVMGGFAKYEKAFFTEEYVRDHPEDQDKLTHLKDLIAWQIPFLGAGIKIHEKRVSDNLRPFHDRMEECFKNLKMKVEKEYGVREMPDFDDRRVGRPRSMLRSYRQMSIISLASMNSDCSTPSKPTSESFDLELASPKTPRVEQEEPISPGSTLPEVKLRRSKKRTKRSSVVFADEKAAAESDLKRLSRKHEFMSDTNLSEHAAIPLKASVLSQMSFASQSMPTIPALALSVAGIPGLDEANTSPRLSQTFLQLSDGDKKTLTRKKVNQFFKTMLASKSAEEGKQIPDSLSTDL
UniProt Q8TDG4: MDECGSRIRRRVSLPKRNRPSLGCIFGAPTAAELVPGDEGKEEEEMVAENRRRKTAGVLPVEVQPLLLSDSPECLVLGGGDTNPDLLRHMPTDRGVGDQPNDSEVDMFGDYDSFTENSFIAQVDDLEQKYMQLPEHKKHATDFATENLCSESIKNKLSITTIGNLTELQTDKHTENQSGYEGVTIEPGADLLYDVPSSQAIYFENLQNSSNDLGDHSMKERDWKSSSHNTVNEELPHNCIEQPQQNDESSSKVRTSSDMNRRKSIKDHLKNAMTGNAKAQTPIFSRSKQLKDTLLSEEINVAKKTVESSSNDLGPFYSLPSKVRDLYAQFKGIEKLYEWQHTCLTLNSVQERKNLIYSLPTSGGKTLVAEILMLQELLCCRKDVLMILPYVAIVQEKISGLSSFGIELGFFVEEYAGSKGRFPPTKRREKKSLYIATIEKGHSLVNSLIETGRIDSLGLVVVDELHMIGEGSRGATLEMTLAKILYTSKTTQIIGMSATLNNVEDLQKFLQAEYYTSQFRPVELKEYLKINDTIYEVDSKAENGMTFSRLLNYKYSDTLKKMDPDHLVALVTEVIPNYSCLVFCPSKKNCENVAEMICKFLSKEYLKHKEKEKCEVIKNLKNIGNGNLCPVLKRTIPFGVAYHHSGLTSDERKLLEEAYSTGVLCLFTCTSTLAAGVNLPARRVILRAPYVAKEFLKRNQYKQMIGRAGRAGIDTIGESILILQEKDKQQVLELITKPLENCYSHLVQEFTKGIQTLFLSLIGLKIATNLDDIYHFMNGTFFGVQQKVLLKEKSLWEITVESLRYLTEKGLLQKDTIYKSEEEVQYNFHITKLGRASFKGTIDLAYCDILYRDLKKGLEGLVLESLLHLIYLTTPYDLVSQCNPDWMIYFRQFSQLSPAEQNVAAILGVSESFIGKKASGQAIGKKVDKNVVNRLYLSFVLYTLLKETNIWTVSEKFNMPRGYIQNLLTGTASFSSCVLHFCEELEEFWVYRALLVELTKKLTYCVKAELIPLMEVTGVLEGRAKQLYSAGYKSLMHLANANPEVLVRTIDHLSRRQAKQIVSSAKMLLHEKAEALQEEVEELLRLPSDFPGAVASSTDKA
UniProt Q8WUH1: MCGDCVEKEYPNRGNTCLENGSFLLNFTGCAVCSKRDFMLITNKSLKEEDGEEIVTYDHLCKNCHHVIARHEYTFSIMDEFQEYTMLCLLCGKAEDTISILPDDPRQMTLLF
UniProt Q8WVJ2: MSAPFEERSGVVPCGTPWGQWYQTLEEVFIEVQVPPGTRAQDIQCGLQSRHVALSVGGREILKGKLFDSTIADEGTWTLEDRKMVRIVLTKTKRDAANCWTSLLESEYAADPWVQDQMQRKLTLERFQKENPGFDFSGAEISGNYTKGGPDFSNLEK
UniProt Q8WTV1: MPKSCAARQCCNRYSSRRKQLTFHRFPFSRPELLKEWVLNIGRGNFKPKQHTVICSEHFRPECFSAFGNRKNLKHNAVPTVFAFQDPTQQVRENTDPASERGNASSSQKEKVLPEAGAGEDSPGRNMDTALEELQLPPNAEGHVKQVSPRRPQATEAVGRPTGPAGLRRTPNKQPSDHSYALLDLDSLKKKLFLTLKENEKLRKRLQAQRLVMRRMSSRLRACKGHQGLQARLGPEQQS
UniProt Q8WZA0: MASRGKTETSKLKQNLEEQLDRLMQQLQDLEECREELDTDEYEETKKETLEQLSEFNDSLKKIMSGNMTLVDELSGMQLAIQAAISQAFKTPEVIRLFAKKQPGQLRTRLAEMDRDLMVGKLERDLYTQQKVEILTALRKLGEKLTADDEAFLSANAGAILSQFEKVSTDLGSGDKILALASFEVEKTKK
UniProt Q92574: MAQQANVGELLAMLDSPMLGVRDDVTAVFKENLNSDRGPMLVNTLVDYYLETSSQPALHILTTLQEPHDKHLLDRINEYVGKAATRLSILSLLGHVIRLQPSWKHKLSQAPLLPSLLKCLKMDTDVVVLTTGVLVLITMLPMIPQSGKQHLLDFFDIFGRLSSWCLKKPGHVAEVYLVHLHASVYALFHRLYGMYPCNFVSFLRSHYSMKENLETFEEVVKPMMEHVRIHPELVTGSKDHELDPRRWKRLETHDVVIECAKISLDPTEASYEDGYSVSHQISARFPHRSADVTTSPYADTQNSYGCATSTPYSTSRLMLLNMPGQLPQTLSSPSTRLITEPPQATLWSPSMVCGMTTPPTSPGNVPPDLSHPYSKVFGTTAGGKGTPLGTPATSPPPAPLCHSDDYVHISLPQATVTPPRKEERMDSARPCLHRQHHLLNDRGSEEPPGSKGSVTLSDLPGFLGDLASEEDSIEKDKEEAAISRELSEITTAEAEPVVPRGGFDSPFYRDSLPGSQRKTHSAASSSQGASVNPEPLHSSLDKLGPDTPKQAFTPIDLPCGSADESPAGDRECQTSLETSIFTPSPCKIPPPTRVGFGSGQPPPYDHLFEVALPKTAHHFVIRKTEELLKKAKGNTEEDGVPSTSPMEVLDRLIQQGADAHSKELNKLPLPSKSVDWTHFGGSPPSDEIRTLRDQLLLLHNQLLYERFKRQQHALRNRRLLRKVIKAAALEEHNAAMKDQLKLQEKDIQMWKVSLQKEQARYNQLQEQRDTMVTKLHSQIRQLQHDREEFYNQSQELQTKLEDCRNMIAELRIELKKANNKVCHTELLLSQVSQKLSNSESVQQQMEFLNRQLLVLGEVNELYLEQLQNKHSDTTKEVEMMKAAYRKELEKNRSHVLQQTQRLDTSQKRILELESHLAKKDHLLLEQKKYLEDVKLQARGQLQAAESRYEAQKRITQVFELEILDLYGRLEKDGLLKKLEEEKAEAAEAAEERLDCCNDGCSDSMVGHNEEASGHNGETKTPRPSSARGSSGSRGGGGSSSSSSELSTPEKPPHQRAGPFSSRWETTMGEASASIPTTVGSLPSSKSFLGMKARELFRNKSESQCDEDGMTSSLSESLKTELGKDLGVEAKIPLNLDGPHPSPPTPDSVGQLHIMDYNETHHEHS
UniProt Q8WUX2: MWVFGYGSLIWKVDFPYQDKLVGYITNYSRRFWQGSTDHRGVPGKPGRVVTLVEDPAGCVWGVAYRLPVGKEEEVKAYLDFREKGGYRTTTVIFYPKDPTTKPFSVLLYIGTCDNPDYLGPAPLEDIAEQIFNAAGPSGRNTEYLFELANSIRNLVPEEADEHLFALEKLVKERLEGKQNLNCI
UniProt Q8WUE5: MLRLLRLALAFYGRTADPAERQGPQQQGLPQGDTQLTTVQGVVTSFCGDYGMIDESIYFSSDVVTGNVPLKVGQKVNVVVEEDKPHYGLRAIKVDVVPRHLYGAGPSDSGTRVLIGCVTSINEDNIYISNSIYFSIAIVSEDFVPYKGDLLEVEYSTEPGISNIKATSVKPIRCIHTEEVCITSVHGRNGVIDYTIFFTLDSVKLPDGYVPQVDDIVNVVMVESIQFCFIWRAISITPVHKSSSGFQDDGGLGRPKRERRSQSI

These targets were tested with Cc1nc(Nc2ncc(C(=O)Nc3c(C)cccc3Cl)s2)cc(N2CCN(CCO)CC2)n1 [dasatinib] (assay: log2 fold change of tryptic peptide abundance, ligand vs vehicle (limited proteolysis) (log2 ratio); higher = more trypsin-susceptible (destabilized)). Details: ligand concentration: 5 uM; sample: K562 cleared lysate.

Row | Target | log2 fold change
1 | DOCK2 (peptide sequence: VAVPIEDMQR, peptide start residue: 495) (UniProt Q92608) | 0.59
2 | UniProt Q8TDG4 (peptide sequence: KHATDFATENLCSESIKNK, peptide start residue: 138) | 0.56
3 | UniProt Q8WUH1 (peptide sequence: NCHHVIAR, peptide start residue: 63) | 0.61
4 | NUDCD2 (peptide sequence: HVALSVGGR, peptide start residue: 51) (UniProt Q8WVJ2) | -0.114
5 | THAP3 (peptide sequence: EWVLNIGR, peptide start residue: 36) (UniProt Q8WTV1) | 0.121
6 | LZIC (peptide sequence: QNLEEQLDR, peptide start residue: 14) (UniProt Q8WZA0) | 0.113
7 | TSC1 (peptide sequence: SVDWTHFGGSPPSDEIR, peptide start residue: 673) (UniProt Q92574) | 0.183
8 | CHAC2 (peptide sequence: RFWQGSTDHR, peptide start residue: 31) (UniProt Q8WUX2) | 0.32
9 | CT55 (peptide sequence: ATSVKPIR, peptide start residue: 166) (UniProt Q8WUE5) | 0.284

In another format: results already given
Row	Target	log2 fold change
2	UniProt Q8TDG4 (peptide sequence: KHATDFATENLCSESIKNK, peptide start residue: 138)	0.56
5	THAP3 (peptide sequence: EWVLNIGR, peptide start residue: 36) (UniProt Q8WTV1)	0.121
